Test results published in patent publication US20110150888A1.
These are yes or no findings as the source states them, for the method shown. Some binding calls cover weakened binding; strength is not graded here.

Target: T1, cynomolgus monkey hepcidin (cynomolgus monkey) (UniProt A7XEI3)
T1 sequence (peptide): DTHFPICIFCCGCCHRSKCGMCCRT
Experiment: competition ELISA

B1: antibody 18B11 (antibody, V domains shown)
VH: QVQLQQWGAGPLKPSETLSLTCAVYNGSFSGYYWSWIRQPPGKGLEWIGDINHSGNTKYNPSLKSRVTISVDTSKNQFSLKLSSVTAADTAVYYCARGDFWSGFDWFDPWGQGTLVTVSS
VL: QSALTQPASVSGSPGQSITISCTGTSSNVGSYNLVSWYQQHPGKAPKLMISEVSKRPSGLSNRFSGSKSGNTASLTISGLQAEDEADYYCCSYAGSSTLIFGGGTKLTVL
binding: binds
